## Results of single-concentration screens

Chains of the proteins cited; added tags and fusions are not shown. Residues count along the entry.
UniProt P9WFT3, whole entry: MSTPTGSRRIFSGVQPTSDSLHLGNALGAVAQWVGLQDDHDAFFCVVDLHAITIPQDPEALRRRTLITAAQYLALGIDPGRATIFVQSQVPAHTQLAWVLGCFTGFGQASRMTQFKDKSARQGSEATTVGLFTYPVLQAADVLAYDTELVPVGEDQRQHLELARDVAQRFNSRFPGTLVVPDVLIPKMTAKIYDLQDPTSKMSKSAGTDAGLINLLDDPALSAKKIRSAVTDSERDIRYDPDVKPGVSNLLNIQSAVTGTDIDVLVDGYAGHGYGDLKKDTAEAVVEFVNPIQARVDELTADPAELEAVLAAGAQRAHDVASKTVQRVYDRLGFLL
UniProt Q8IDJ8, 1-583: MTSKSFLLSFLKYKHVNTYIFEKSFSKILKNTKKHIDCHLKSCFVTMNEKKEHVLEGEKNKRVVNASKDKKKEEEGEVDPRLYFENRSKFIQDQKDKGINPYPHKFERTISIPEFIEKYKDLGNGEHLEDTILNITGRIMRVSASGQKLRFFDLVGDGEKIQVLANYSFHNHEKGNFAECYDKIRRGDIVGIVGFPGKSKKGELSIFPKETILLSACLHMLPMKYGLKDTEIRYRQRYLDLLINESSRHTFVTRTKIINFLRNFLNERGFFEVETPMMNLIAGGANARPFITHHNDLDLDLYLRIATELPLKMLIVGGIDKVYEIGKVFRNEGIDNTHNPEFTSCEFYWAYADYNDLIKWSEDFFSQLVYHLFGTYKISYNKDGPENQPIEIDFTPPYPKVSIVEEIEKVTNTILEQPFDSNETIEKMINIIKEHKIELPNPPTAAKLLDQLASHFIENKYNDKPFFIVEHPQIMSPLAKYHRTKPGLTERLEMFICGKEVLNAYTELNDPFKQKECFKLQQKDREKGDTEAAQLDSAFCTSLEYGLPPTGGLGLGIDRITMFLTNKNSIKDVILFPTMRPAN
UniProt P9WNZ1, whole entry: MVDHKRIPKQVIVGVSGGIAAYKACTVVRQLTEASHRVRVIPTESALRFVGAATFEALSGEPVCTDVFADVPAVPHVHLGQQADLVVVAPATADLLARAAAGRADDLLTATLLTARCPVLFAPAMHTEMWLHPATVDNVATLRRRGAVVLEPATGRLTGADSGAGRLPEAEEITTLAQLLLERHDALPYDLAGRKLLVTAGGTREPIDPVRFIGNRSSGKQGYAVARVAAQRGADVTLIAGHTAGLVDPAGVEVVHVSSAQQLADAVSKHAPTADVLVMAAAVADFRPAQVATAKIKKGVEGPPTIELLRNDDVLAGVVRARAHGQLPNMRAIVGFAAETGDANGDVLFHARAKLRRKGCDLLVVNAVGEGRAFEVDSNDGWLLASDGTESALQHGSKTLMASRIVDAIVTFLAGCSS
UniProt P9WPC5, whole entry: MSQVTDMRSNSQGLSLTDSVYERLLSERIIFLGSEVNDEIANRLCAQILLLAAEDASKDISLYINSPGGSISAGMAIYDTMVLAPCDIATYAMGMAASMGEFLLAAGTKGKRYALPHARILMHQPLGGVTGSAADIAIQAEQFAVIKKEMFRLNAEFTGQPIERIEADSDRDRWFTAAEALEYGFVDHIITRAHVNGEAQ
UniProt P9WPC3, whole entry partner: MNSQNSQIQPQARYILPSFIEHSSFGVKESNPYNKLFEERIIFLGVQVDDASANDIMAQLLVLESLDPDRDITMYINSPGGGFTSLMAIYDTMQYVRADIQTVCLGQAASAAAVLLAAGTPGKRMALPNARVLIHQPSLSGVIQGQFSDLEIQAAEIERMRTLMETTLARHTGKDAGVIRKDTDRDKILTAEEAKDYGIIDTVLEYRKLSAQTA
UniProt Q4DA54, 1-478: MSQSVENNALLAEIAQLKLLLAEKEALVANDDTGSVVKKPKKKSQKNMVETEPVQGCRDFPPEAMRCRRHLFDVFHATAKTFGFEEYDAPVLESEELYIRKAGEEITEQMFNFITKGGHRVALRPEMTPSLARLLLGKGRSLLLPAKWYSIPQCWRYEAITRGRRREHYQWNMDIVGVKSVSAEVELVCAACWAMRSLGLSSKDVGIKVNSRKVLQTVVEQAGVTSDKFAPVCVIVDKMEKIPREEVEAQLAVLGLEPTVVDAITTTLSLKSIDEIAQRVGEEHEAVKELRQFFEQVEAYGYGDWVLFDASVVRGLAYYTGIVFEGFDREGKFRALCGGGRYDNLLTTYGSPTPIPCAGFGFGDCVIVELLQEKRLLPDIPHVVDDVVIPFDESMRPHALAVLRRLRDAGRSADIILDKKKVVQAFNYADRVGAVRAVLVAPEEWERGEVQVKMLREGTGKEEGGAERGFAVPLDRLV

The values are deposited in ChEMBL (CHEMBL3988442, “University of Dundee, Small-Polar-MMV Screening Library” (2021)).

MtTrpRS: 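Tryptophan-tRNA ligase, Mycobacterium tuberculosis (UniProt P9WFT3). Enzyme assay of tryptophanyl-tRNA synthetase; the read-out is not stated. Concentration: 10 µM. Direction is not recorded; retested compounds ran higher, which suggests that high means inhibition. Of about 65,000 compounds tested this way, about 64 (0.098%) reached 50% or more in at least one test.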
PfKRS1: 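Enzyme assay of the cytosolic lysyl-tRNA synthetase in 384-well plates, read by luminescence. Target: Lysine-tRNA ligase, Plasmodium falciparum 3D7 (UniProt Q8IDJ8). Concentration: 30 µM. Direction is inferred from only a few compounds that gave an IC50; most scored high, so higher reads as stronger inhibition. Size under these conditions: about 69,000 compounds, about 49 of them at 50% or above in at least one test.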
CoaBC: 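Coenzyme A biosynthesis protein CoaBC, Mycobacterium tuberculosis (UniProt P9WNZ1). Enzyme assay of CoaBC with a phosphate dye (Biomol Green) read at 650 nm. Tested at 30 µM. Direction is inferred from only a few compounds that gave an IC50; most scored high, so higher reads as stronger inhibition. Most strong results did not repeat in a second test. Of about 67,000 compounds tested this way, about 40 (0.06%) reached 50% or more in at least one test.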
ClpP1P2: 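Protease assay of ClpP1P2, read by the AMC dye that it sets free. Target: ClpP1P2, Mycobacterium tuberculosis (UniProt P9WPC5 and UniProt P9WPC3). Tested at 50 µM. Direction is inferred from only a few compounds that gave an IC50; most scored high, so higher reads as stronger inhibition. Most other retested compounds had strongly negative values. Size under these conditions: about 69,000 compounds, about 10 of them at 50% or above in at least one test.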
TcHisRS: 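Histidine-tRNA ligase, Trypanosoma cruzi CL Brener (UniProt Q4DA54). Enzyme assay of histidyl-tRNA synthetase; the read-out is not stated. Concentration: 30 µM. Higher reads as stronger inhibition (inferred: compounds with an IC50 in retests scored well above the rest). About 69,000 compounds were tested under these conditions; 0.045% (about 31) showed 50% or more at least once.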

Results are given as percent effect. How 0% and 100% were set is not recorded. Most values in the screen are low, and negative values occur. This is an unselected part of the compounds tested.

structure | MtTrpRS | PfKRS1 | CoaBC | ClpP1P2 | TcHisRS
C=C(C)CNCC1(O)CCCN(Cc2ccc(F)c(F)c2)C1=O (centres unmarked) | 2.26% | 5.337% | 2.284% | -25.22% | 4.036%
CCOCc1ccccc1CNc1ccc2nncn2n1 | -1.331% | 3.426% | 0.2445% | -10.28% | 6.186%
COCCc1noc(C2CCN(C(=O)Nc3cccs3)CC2)n1 | 7.204% | 0.6184% | 7.983% | 1.883% | 3.333%
COc1cccc(CN(Cc2ccco2)Cc2[nH]cnc2C)c1 | 0.5028% | -2.006% | -18.95% | -16.24% | 1.429%
Cc1cccc(CN2C[C@@H]3CN(Cc4ccoc4)CCO[C@@H]3C2)n1 | -4.209% | 0.1714% | 0.6148% | -10.57% | 6.897%
c1cnc2c(c1)cc([C@H]1CCCO1)n2CCN1CCCCC1 | -1.923% | -4.432% | 0.2778% | 2.816% | -7.027%
CCCn1c(O)nnc1SCC1OCCc2ccccc21 (centres unmarked) | 0.3112% | 1.877% | 9.627% | 3.156% | 5.172%
CCOCCN1CCN(c2ccc(C#N)cn2)CC1 | 3.785% | 4.127% | 6.796% | 5.728% | 5.025%
CCOc1cccc(NC(=O)c2cc(C)on2)n1 | -1.468% | 11.11% | 3.471% | 7.068% | 9%
CC(NCc1cnn(C)c1)c1ccc(OCc2nccn2C)cc1 (centres unmarked) | -5.02% | -0.615% | -7.767% | -5.145% | 6.077%
CS(=O)(=O)NCCNC(=O)Cc1ccc(Br)s1 | -2.353% | 5.216% | -4.369% | -12.12% | 9.392%
Cc1ccc(C)c(S(=O)(=O)CCN2CCCC2Cn2cncn2)c1 (centres unmarked) | -1.4% | 2.942% | 3.269% | -9.279% | 12.87%
CCc1nc(C2CCCN2C(=O)c2ccc(N3CCCC3)nn2)no1 (centres unmarked) | -4.708% | 1.844% | 2.611% | -13.27% | 2.825%
Cc1nc(C(C)NC(=O)c2cn(C/C=C/c3ccccc3)nn2)n[nH]1 (centres unmarked) | -2.617% | -2.925% | 17.22% | 3.755% | 3.093%
c1cncc(C2COC3(CCN(CC4CC4)CC3)C2)c1 (centres unmarked) | -2.627% | 9.959% | 2.692% | 3.748% | 3.743%
O=C(O)c1nnn(Cc2cccc(C(F)(F)F)c2)c1-c1ccncc1 | 2.462% | 0.566% | 9.208% | 1.143% | 3.409%
CC(C)c1nnc(CN2CC(n3cccn3)C2)o1 | -1.519% | 2.41% | 2.584% | 10.67% | 3.704%
CCS(=O)(=O)c1ncc(CN(C)Cc2ccc(C)o2)n1CCOC | -0.942% | -6.851% | 8.082% | -15.43% | -4.523%
COCCN1CCC(NCc2cccnc2)C1 (centres unmarked) | -2.958% | 0.6144% | 1.205% | -3.945% | 3.817%
COCC1Cn2nnc(-c3cnn(C)c3)c2CN1Cc1ccsc1 (centres unmarked) | 4.643% | 3.465% | -4.941% | -3.109% | 3.365%
CN(C)Cc1nc(C(=O)N2CCCC(COc3ccc(F)cc3)C2)cs1 (centres unmarked) | 3.493% | 4.513% | 9.218% | -10.22% | 5.217%
O=C(NCc1ccncc1)N1CCSCC1CCO (centres unmarked) | 5.5% | 0.2421% | -2.439% | 13.63% | -3.922%
O=C1CN(CCS(=O)(=O)c2ccc(Cl)cc2)CCN1 | 4.059% | 4.49% | 6.2% | 12.28% | 14.36%
CSc1ccc(C(CC(=O)O)NC(=O)c2cc(C)on2)cc1 (centres unmarked) | 4.581% | 2.922% | 1.34% | -9.174% | 10.12%
O=C1CC2(CCCC2)C(=O)N1CC(O)COCc1ccccc1F (centres unmarked) | 7.479% | -2.867% | -4.142% | 7.178% | 1.058%
COc1cccc2c1N(Cc1noc(C(C)(C)C)n1)CCC2 | 0.55% | -0.3632% | -2.764% | 3.387% | 8.824%
CC(C)c1noc(-c2ccc(NCCCC3CCOC3)nc2)n1 (centres unmarked) | -3.453% | -0.3423% | -0.8631% | -9.311% | 5.263%
CO[C@H]1COCCN(C(=O)c2cc(C)oc2C(F)(F)F)C1 | -1.581% | 4.88% | -5.192% | -3.374% | 4.95%
CCN1CCN(CCNC(=O)c2sc(C)nc2C)CC1 | -2.442% | 1.554% | -8.311% | -3.673% | 4.843%
c1ccn(Cc2nnc3n2CCCN(Cc2ccoc2)C3)c1 | 0.5863% | 7.335% | 11.68% | -9.735% | 4%
FC(F)(F)CCc1ccnc(N[C@H]2CC[C@H](n3cnnc3)CC2)n1 | -3.273% | 6.863% | -3.865% | 0.2134% | 4.516%
CCc1nnc(NC(=O)NCCN(C)C(=O)OC(C)(C)C)s1 | -2.147% | 6.664% | -0.1274% | 1.678% | 10.5%
COCC1c2nnn(CC3CC3)c2CCN1C(=O)c1sccc1C (centres unmarked) | -5.183% | 0.7133% | 2.336% | -7.866% | 0%
CC(C)=CCN1CCN(C(C)c2cccnc2)CC1 (centres unmarked) | 2.692% | 3.685% | -6.388% | -8.354% | 7.407%
COc1ccccc1CC(C)(C)NC(=O)CNS(C)(=O)=O | -8.513% | -0.6164% | 3.571% | -3.577% | 8.621%
Cc1cc(C)n(CCCC(=O)N2CCc3ncc(Cl)cc3C2)n1 | 15.71% | 0.7757% | -1.946% | -5.846% | 0%
O=C(c1ccc2c(c1)COC2)N1CCC(Nc2cccnn2)CC1 | 0.07994% | 3.35% | 1.446% | -1.756% | 3.053%
Cc1noc(C)c1CN1CCc2nn(C(C)C)c(=O)cc2C1 | 1.657% | 7.11% | 3.172% | -2.286% | 0%
CN1CCC2(CCN(Cc3nccs3)CC2)C1=O | 1.394% | 3.978% | 3.226% | -10.04% | 3.483%
Cc1c(C)n(Cc2ccncc2)c2nc3c(c(N)c12)CCCC3 | -4.832% | 4.582% | 6.061% | 5.989% | 5.263%
CN1CCn2c(-c3cccc(F)c3)cnc2C12CCN(CC1CC1)CC2 | -2.327% | -0.2518% | -36.25% | -2.871% | 9.091%
COc1ccc(-c2nc(CN3CCCC(OC)C3)c(C)o2)c(F)c1 (centres unmarked) | 0.838% | 0.9824% | -12.27% | -6.52% | 9.551%
CN(C)c1cc2c(nn1)CCN(C(=O)c1cc3ccccc3[nH]c1=O)C2 | -7.385% | 0.7453% | 2.016% | -0.1867% | 10.92%
N[C@@H]1c2ccccc2C2(CCN(c3ccc(C(F)(F)F)cn3)CC2)[C@H]1O | -2.175% | 6.06% | 3.418% | -1.203% | 17.07%
Cc1cc(CN(C)C(=O)NC2CCN(S(C)(=O)=O)CC2)no1 | -2.034% | 11.76% | 7.559% | -3.765% | -15.97%

Once more, the final 5:

For CN1CCn2c(-c3cccc(F)c3)cnc2C12CCN(CC1CC1)CC2 the result was MtTrpRS: -2.327%; PfKRS1: -0.2518%; CoaBC: -36.25%; ClpP1P2: -2.871%; TcHisRS: 9.091%.
For COc1ccc(-c2nc(CN3CCCC(OC)C3)c(C)o2)c(F)c1 (centres unmarked) the result was MtTrpRS: 0.838%; PfKRS1: 0.9824%; CoaBC: -12.27%; ClpP1P2: -6.52%; TcHisRS: 9.551%.
For CN(C)c1cc2c(nn1)CCN(C(=O)c1cc3ccccc3[nH]c1=O)C2 the result was MtTrpRS: -7.385%; PfKRS1: 0.7453%; CoaBC: 2.016%; ClpP1P2: -0.1867%; TcHisRS: 10.92%.
For N[C@@H]1c2ccccc2C2(CCN(c3ccc(C(F)(F)F)cn3)CC2)[C@H]1O the result was MtTrpRS: -2.175%; PfKRS1: 6.06%; CoaBC: 3.418%; ClpP1P2: -1.203%; TcHisRS: 17.07%.
For Cc1cc(CN(C)C(=O)NC2CCN(S(C)(=O)=O)CC2)no1 the result was MtTrpRS: -2.034%; PfKRS1: 11.76%; CoaBC: 7.559%; ClpP1P2: -3.765%; TcHisRS: -15.97%.